# According to the supplement of paper PMC8728848:
# This is one part of the list.
# B1: Protein L(A-C2) (Finegoldia magna), Q51912 (protein)
# chain: ADEPIDLEKLEEKRDKENVGNLPKFDNEVKDGSENPMAKYPDFDDEASTRFETENNEFEEKKVVSDNFFDQSEHPFVENKEETPETPETDSEEEVTIKANLIFANGSTQTAEFKGTFEKATSEAYAYADTLKKDNGEYTVDVADKGYTLNIKFAGKEKTPEEPKEEVTIKANLIYADGKTQTAEFKGTFEEATAEAYRYADALKKDNGEYTVDVADKGYTLNIKFAGKEKTPEEPKEEVTIKANLIYADGKTQTAEFKGTFEEATAEAYRYADLLAKENGKYTVDVADKGYTLNIKFAGKEKTPEEPKEEVTIKANLIYADGKTQTAEFKGTFAEATAEAYRYADLLAKENGKYTADLEDGGYTINIRFAGKKVDEKPEEKEQVTIKENIYFEDGTVQTATFKGTFAEATAEAYRYADLLSKEHGKYTADLEDGGYTINIRFAGKEEPEETPEKPEVQDGYASYEEAEAAAKEALKNDDVNKSYTIRQGADGRYYYVLSPVEAEEEKPEAQNGYATYEEAEAAAKKALENDPINKSYSIRQGADGRYYYVLSPVEAE
# Key:
# Assay in all cases: glycan array binding signal (z-score within array); higher = stronger binding
# Details in all cases: glycan notation: IUPAC condensed, linker removed
# [1] = biological target: GlcNAc(b1-3)Gal(b1-4)GlcNAc(b1-3)Gal(b1-4)GlcNAc(b1-3)GalNAc
# Outline: (§1)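 The Consortium for Functional Glycomics database supplied 3228 glycan arrays, of which those lacking an available protein sequence were dropped. The binding signal, a within-array Z-score, was averaged across arrays of the same protein sequence and across linkers. Negative scores can be read as non-binding.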
# [2] = biological target: GlcNAc(b1-3)Gal(b1-4)GlcNAc(b1-3)GalNAc
# Outline: as §1
# [3] = biological target: GlcNAc(b1-3)Gal(b1-4)GlcNAc(b1-3)[GlcNAc(b1-3)Gal(b1-4)GlcNAc(b1-3)]GalNAc
# Outline: as §1
# [4] = biological target: GlcNAc(b1-3)Gal(b1-4)GlcNAc(b1-6)[Gal(b1-3)]GalNAc
# Outline: as §1
# [5] = biological target: GlcNAc(b1-3)Gal(b1-4)GlcNAc(b1-6)[GlcNAc(b1-3)Gal(b1-3)]GalNAc
# Outline: as §1
# [6] = biological target: GlcNAc(b1-3)Gal(b1-4)GlcNAc(b1-6)[GlcNAc(b1-3)]Gal(b1-4)GlcNAc
# Outline: as §1
# GlcNAc(b1-3)GalNAc = biological target: GlcNAc(b1-3)GalNAc
# Outline: as §1
# GlcNAc(b1-3)Man = biological target: GlcNAc(b1-3)Man
# Outline: as §1
# [7] = biological target: GlcNAc(b1-3)[GlcNAc(b1-4)][GlcNAc(b1-6)]GlcNAc
# Outline: as §1
# [8] = biological target: GlcNAc(b1-3)[GlcNAc(b1-6)]Gal(b1-4)GlcNAc
# Outline: as §1
# [9] = biological target: GlcNAc(b1-3)[GlcNAc(b1-6)]GalNAc
# Outline: as §1
# [10] = biological target: GlcNAc(b1-4)Gal(b1-4)GlcNAc
# Outline: as §1
# GlcNAc(b1-4)GlcNAc = biological target: GlcNAc(b1-4)GlcNAc
# Outline: as §1
# [11] = biological target: GlcNAc(b1-4)GlcNAc(b1-4)GlcNAc
# Outline: as §1
# [12] = biological target: GlcNAc(b1-4)GlcNAc(b1-4)GlcNAc(b1-4)GlcNAc(b1-4)GlcNAc
# Outline: as §1
# [13] = biological target: GlcNAc(b1-4)GlcNAc(b1-4)GlcNAc(b1-4)GlcNAc(b1-4)GlcNAc(b1-4)GlcNAc
# Outline: as §1
# [14] = biological target: GlcNAc(b1-4)[GlcNAc(b1-6)]GalNAc
# Outline: as §1
# [15] = biological target: GlcNAc(b1-6)Gal(b1-4)GlcNAc
# Outline: as §1
# GlcNAc(b1-6)GalNAc = biological target: GlcNAc(b1-6)GalNAc
# Outline: as §1
# [16] = biological target: GlcNAc6S(b1-3)Gal(b1-4)GlcNAc
# Outline: as §1
# Kdn(a2-3)Gal(b1-3)GalNAc = biological target: Kdn(a2-3)Gal(b1-3)GalNAc
# Outline: as §1
# Kdn(a2-3)Gal(b1-3)GlcNAc = biological target: Kdn(a2-3)Gal(b1-3)GlcNAc
# Outline: as §1
# Kdn(a2-3)Gal(b1-4)Glc = biological target: Kdn(a2-3)Gal(b1-4)Glc
# Outline: as §1
# Kdn(a2-3)Gal(b1-4)GlcNAc = biological target: Kdn(a2-3)Gal(b1-4)GlcNAc
# Outline: as §1
# [17] = biological target: Kdn(a2-3)Gal(b1-4)[Fuc(a1-3)]GlcNAc
# Outline: as §1
# Kdn(a2-6)Gal(b1-4)GlcNAc = biological target: Kdn(a2-6)Gal(b1-4)GlcNAc
# Outline: as §1
# [18] = biological target: Man(a1-2)Man(a1-2)Man(a1-3)Man
# Outline: as §1
# [19] = biological target: Man(a1-2)Man(a1-2)Man(a1-6)[Man(a1-3)]Man
# Outline: as §1
# Man(a1-2)Man(a1-3)Man = biological target: Man(a1-2)Man(a1-3)Man
# Outline: as §1
# [20] = biological target: Man(a1-2)Man(a1-3)[Man(a1-2)Man(a1-6)]Man
# Outline: as §1
# [21] = biological target: Man(a1-2)Man(a1-3)[Man(a1-2)Man(a1-6)]Man(a1-6)[Man(a1-2)Man(a1-2)Man(a1-3)]Man
# Outline: as §1
# [22] = biological target: Man(a1-2)Man(a1-3)[Man(a1-2)Man(a1-6)]Man(a1-6)[Man(a1-2)Man(a1-2)Man(a1-3)]Man(b1-4)GlcNAc(b1-4)GlcNAc
# Outline: as §1
# [23] = biological target: Man(a1-2)Man(a1-3)[Man(a1-6)]Man(a1-6)[Man(a1-2)Man(a1-3)]Man(b1-4)GlcNAc(b1-4)GlcNAc
# Outline: as §1
# [24] = biological target: Man(a1-2)Man(a1-6)[Man(a1-3)]Man(a1-6)[Man(a1-2)Man(a1-2)Man(a1-3)]Man
# Outline: as §1
# [25] = biological target: Man(a1-2)Man(a1-6)[Man(a1-3)]Man(a1-6)[Man(a1-2)Man(a1-2)Man(a1-3)]Man(b1-4)GlcNAc(b1-4)GlcNAc
# Outline: as §1
# Man(a1-3)[Man(a1-6)]Man = biological target: Man(a1-3)[Man(a1-6)]Man
# Outline: as §1
# [26] = biological target: Man(a1-3)[Man(a1-6)]Man(a1-6)[Man(a1-2)Man(a1-3)]Man(b1-4)GlcNAc(b1-4)GlcNAc
# Outline: as §1
# [27] = biological target: Man(a1-3)[Man(a1-6)]Man(a1-6)[Man(a1-3)]Man
# Outline: as §1
# [28] = biological target: Man(a1-3)[Man(a1-6)]Man(a1-6)[Man(a1-3)]Man(b1-4)GlcNAc(b1-4)GlcNAc
# Outline: as §1
# [29] = biological target: Man(a1-3)[Man(a1-6)]Man(b1-4)GlcNAc(b1-4)GlcNAc
# Outline: as §1
# [30] = biological target: Man(a1-3)[Man(a1-6)]Man(b1-4)GlcNAc(b1-4)[Fuc(a1-6)]GlcNAc
# Outline: as §1
# Man(a1-6)Man = biological target: Man(a1-6)Man
# Outline: as §1
# Man(b1-4)GlcNAc = biological target: Man(b1-4)GlcNAc
# Outline: as §1
# MurNAc(b1-4)GlcNAc = biological target: MurNAc(b1-4)GlcNAc
# Outline: as §1
# Neu5Ac(a2-3)Gal = biological target: Neu5Ac(a2-3)Gal
# Outline: as §1
# [31] = biological target: Neu5Ac(a2-3)Gal(b1-3)GalNAc
# Outline: as §1
# [32] = biological target: Neu5Ac(a2-3)Gal(b1-3)GalNAc(b1-3)Gal(a1-4)Gal(b1-4)Glc
# Outline: as §1
# [33] = biological target: Neu5Ac(a2-3)Gal(b1-3)GalNAc(b1-4)[Neu5Ac(a2-3)]Gal(b1-4)Glc
# Outline: as §1
# [34] = biological target: Neu5Ac(a2-3)Gal(b1-3)GalNAc(b1-4)[Neu5Ac(a2-8)Neu5Ac(a2-3)]Gal(b1-4)Glc
# Outline: as §1
# [35] = biological target: Neu5Ac(a2-3)Gal(b1-3)GalNAc6S
# Outline: as §1
# [36] = biological target: Neu5Ac(a2-3)Gal(b1-3)GlcNAc
# Outline: as §1
# [37] = biological target: Neu5Ac(a2-3)Gal(b1-3)GlcNAc(b1-2)Man
# Outline: as §1
# [38] = biological target: Neu5Ac(a2-3)Gal(b1-3)GlcNAc(b1-2)Man(a1-3)[GlcNAc(b1-4)][Neu5Ac(a2-3)Gal(b1-3)GlcNAc(b1-2)Man(a1-6)]Man(b1-4)GlcNAc(b1-4)GlcNAc
# Outline: as §1
# [39] = biological target: Neu5Ac(a2-3)Gal(b1-3)GlcNAc(b1-2)Man(a1-3)[Neu5Ac(a2-3)Gal(b1-3)GlcNAc(b1-2)Man(a1-6)]Man(b1-4)GlcNAc(b1-4)GlcNAc
# Outline: as §1
# [40] = biological target: Neu5Ac(a2-3)Gal(b1-3)GlcNAc(b1-3)Gal(b1-3)GlcNAc
# Outline: as §1
# [41] = biological target: Neu5Ac(a2-3)Gal(b1-3)GlcNAc(b1-3)Gal(b1-4)GlcNAc
# Outline: as §1
# [42] = biological target: Neu5Ac(a2-3)Gal(b1-3)GlcNAc(b1-3)GalNAc
# Outline: as §1
# [43] = biological target: Neu5Ac(a2-3)Gal(b1-3)GlcNAc(b1-4)Gal(b1-4)Glc
# Outline: as §1
# [44] = biological target: Neu5Ac(a2-3)Gal(b1-3)GlcNAc(b1-6)GalNAc
# Outline: as §1
# [45] = biological target: Neu5Ac(a2-3)Gal(b1-3)GlcNAc6S
# Outline: as §1
binder,measurement,setting,value
B1,glycan array binding signal (z-score),[1],-0.786
same,glycan array binding signal (z-score),[2],-0.749
same,glycan array binding signal (z-score),[3],-0.531
same,glycan array binding signal (z-score),[4],0.049
same,glycan array binding signal (z-score),[5],-0.623
same,glycan array binding signal (z-score),[6],-0.568
same,glycan array binding signal (z-score),GlcNAc(b1-3)GalNAc,-0.858
same,glycan array binding signal (z-score),GlcNAc(b1-3)Man,-0.226
same,glycan array binding signal (z-score),[7],-0.145
same,glycan array binding signal (z-score),[8],-0.856
same,glycan array binding signal (z-score),[9],-0.41
same,glycan array binding signal (z-score),[10],-0.687
same,glycan array binding signal (z-score),GlcNAc(b1-4)GlcNAc,-0.693
same,glycan array binding signal (z-score),[11],-0.712
same,glycan array binding signal (z-score),[12],-0.381
same,glycan array binding signal (z-score),[13],-0.356
same,glycan array binding signal (z-score),[14],-0.543
same,glycan array binding signal (z-score),[15],-0.283
same,glycan array binding signal (z-score),GlcNAc(b1-6)GalNAc,-0.929
same,glycan array binding signal (z-score),[16],0.355
same,glycan array binding signal (z-score),Kdn(a2-3)Gal(b1-3)GalNAc,0.05
same,glycan array binding signal (z-score),Kdn(a2-3)Gal(b1-3)GlcNAc,-0.23
same,glycan array binding signal (z-score),Kdn(a2-3)Gal(b1-4)Glc,-0.064
same,glycan array binding signal (z-score),Kdn(a2-3)Gal(b1-4)GlcNAc,-0.648
same,glycan array binding signal (z-score),[17],2.1
same,glycan array binding signal (z-score),Kdn(a2-6)Gal(b1-4)GlcNAc,-0.185
same,glycan array binding signal (z-score),[18],-0.753
same,glycan array binding signal (z-score),[19],0.607
same,glycan array binding signal (z-score),Man(a1-2)Man(a1-3)Man,-0.409
same,glycan array binding signal (z-score),[20],-1.12
same,glycan array binding signal (z-score),[21],-0.567
same,glycan array binding signal (z-score),[22],0.874
same,glycan array binding signal (z-score),[23],-0.761
same,glycan array binding signal (z-score),[24],1.4
same,glycan array binding signal (z-score),[25],-1.51
same,glycan array binding signal (z-score),Man(a1-3)[Man(a1-6)]Man,-0.723
same,glycan array binding signal (z-score),[26],4.98
same,glycan array binding signal (z-score),[27],-0.409
same,glycan array binding signal (z-score),[28],1.25
same,glycan array binding signal (z-score),[29],0.154
same,glycan array binding signal (z-score),[30],0.15
same,glycan array binding signal (z-score),Man(a1-6)Man,0.219
same,glycan array binding signal (z-score),Man(b1-4)GlcNAc,0.002
same,glycan array binding signal (z-score),MurNAc(b1-4)GlcNAc,-0.844
same,glycan array binding signal (z-score),Neu5Ac(a2-3)Gal,-0.609
same,glycan array binding signal (z-score),[31],0.418
same,glycan array binding signal (z-score),[32],1.65
same,glycan array binding signal (z-score),[33],-1.08
same,glycan array binding signal (z-score),[34],0.726
same,glycan array binding signal (z-score),[35],-0.684
same,glycan array binding signal (z-score),[36],-0.31
same,glycan array binding signal (z-score),[37],3.79
same,glycan array binding signal (z-score),[38],-0.605
same,glycan array binding signal (z-score),[39],-0.023
same,glycan array binding signal (z-score),[40],-0.399
same,glycan array binding signal (z-score),[41],-0.808
same,glycan array binding signal (z-score),[42],0.746
same,glycan array binding signal (z-score),[43],-1.04
same,glycan array binding signal (z-score),[44],0.183
same,glycan array binding signal (z-score),[45],-0.165

# Given bar-delimited: part of the list above
binder | measurement | setting | value
B1 | glycan array binding signal (z-score) | [15] | -0.283
same | glycan array binding signal (z-score) | Man(a1-6)Man | 0.219
same | glycan array binding signal (z-score) | [31] | 0.418
